# Measured values published in the supplement of paper PMC9015667.
# Structures can show the parent of a compound that is named as a salt. The list shows a part of the results. Repeats are few or missing, and single values can be far off.
# Assays:
# Assay in all cases: reduction in cell viability relative to untreated/vehicle; higher = more growth inhibition
# Details in all cases: 200 nM; 72 h
# M229P = test system: M229P (parental melanoma line)
# M229R = test system: M229R (matched melanoma line resistant to BRAF inhibitors)
# M238P = test system: M238P (parental melanoma line)
# M238R = test system: M238R (matched melanoma line resistant to BRAF inhibitors)
# M249P = test system: M249P (parental melanoma line)
# M249R = test system: M249R (matched melanoma line resistant to BRAF inhibitors)
# UACC62P = test system: UACC62P (parental melanoma line)
# UACC62R = test system: UACC62R (matched melanoma line resistant to BRAF inhibitors)
SMILES,reduction in cell viability (M229P),reduction in cell viability (M229R),reduction in cell viability (M238P),reduction in cell viability (M238R),reduction in cell viability (M249P),reduction in cell viability (M249R),reduction in cell viability (UACC62P),reduction in cell viability (UACC62R)
NC(=O)c1noc([C@H](CCCC2CCCCC2)CC(=O)NO)n1,< 0%,< 0%,< 0%,< 0%,< 0%,1.61%,< 0%,< 0%
CCn1c(-c2nonc2N)nc2c(C#CC(C)(C)O)ncc(OC[C@H]3CCCNC3)c21,4.34%,14%,13.4%,< 0%,< 0%,23.5%,19.7%,< 0%
CC(C)CC(=O)Nc1n[nH]c2c1CN(C(=O)C1CCN(C)CC1)C2(C)C,7.14%,< 0%,22.1%,24.5%,32.4%,57.9%,46.1%,63.6%
CC(C)(F)C[C@H](N[C@@H](c1ccc(-c2ccc(S(C)(=O)=O)cc2)cc1)C(F)(F)F)C(=O)NC1(C#N)CC1 [Odanacatib],< 0%,< 0%,< 0%,< 0%,< 0%,< 0%,< 0%,23.3%
COC1=C2C[C@@H](C)C[C@H](OC)[C@H](O)[C@@H](C)/C=C(\C)[C@H](OC(N)=O)[C@@H](OC)/C=C\C=C(/C)C(=O)NC(=CC1=O)C2=O [Geldanamycin],26.3%,45.7%,51.7%,< 0%,< 0%,< 0%,77.8%,53.9%
CN1[C@@H]2CC[C@H]1C[C@@H](OC(=O)c1c[nH]c3ccccc13)C2 [Tropisetron],< 0%,< 0%,< 0%,< 0%,4.47%,< 0%,< 0%,< 0%
C[C@@H](NCCCc1cccc(C(F)(F)F)c1)c1cccc2ccccc12 [Cinacalcet hydrochloride],< 0%,< 0%,< 0%,< 0%,< 0%,< 0%,< 0%,< 0%
CNC[C@H](O)c1cccc(O)c1 [Phenylephrine hydrochloride],< 0%,< 0%,< 0%,< 0%,< 0%,12.5%,< 0%,< 0%
O=c1[nH]nc(Sc2ncc([N+](=O)[O-])s2)n1-c1ccc2c(c1)OCCO2,< 0%,< 0%,< 0%,< 0%,< 0%,< 0%,< 0%,< 0%
Cc1ccccc1C(C(=O)NC1CCCCC1)N(C(=O)Cn1ccnc1C)c1cccc(F)c1 (configuration not stated),< 0%,< 0%,< 0%,< 0%,< 0%,< 0%,1.77%,< 0%
CCN(CC)CCOc1ccc(Nc2ncc3cc(-c4c(Cl)cccc4Cl)c(=O)n(C)c3n2)cc1,64.1%,63.2%,70.9%,60.7%,16.2%,61.3%,51%,70.5%
CCOc1cc(C(=O)Nc2ccc(Cl)c(-c3nc4ccccc4[nH]3)c2)cc(OCC)c1OCC,< 0%,< 0%,< 0%,< 0%,< 0%,< 0%,1.58%,< 0%
CCn1cc(C(=O)O)c(=O)c2cc(F)c(N3CCN(C)CC3)cc21 [Pefloxacin],< 0%,< 0%,< 0%,< 0%,< 0%,< 0%,< 0%,< 0%
CCC[C@@H]1C[C@@H](C(=O)N[C@@H]([C@H]2O[C@H](SC)[C@H](O)[C@@H](O)[C@H]2O)[C@H](C)Cl)N(C)C1 [Clindamycin hydrochloride],< 0%,< 0%,< 0%,< 0%,< 0%,< 0%,< 0%,< 0%
CC(C)c1cc(C(=O)N2Cc3ccc(CN4CCN(C)CC4)cc3C2)c(O)cc1O,58.2%,67%,52.3%,46.2%,31.3%,37.4%,62.5%,66.9%
O=C(O)c1cc(/N=N/c2ccc(S(=O)(=O)Nc3ccccn3)cc2)ccc1O [Sulfasalazine],< 0%,< 0%,< 0%,< 0%,< 0%,< 0%,< 0%,< 0%
CC(=O)Nc1sc2c(c1-c1nc3ccccc3s1)CNC2,< 0%,< 0%,< 0%,< 0%,< 0%,< 0%,< 0%,< 0%
CN(C)CCCN1c2ccccc2CCc2ccc(Cl)cc21 [Clomipramine],< 0%,< 0%,< 0%,< 0%,< 0%,< 0%,< 0%,< 0%
CC(C)OC(=O)C(C)(C)Oc1ccc(C(=O)c2ccc(Cl)cc2)cc1 [Fenofibrate],< 0%,< 0%,< 0%,< 0%,< 0%,< 0%,1.33%,< 0%
COC(c1ccccc1)(c1ccccc1)[C@H](Oc1nc(C)cc(C)n1)C(=O)O [Ambrisentan],< 0%,< 0%,2.8%,< 0%,< 0%,8.58%,< 0%,< 0%
C[C@]12CC[C@@H]3c4ccc(O)cc4C[C@@H](CCCCCCCCC[S+]([O-])CCCC(F)(F)C(F)(F)F)[C@H]3[C@@H]1CC[C@@H]2O (some centres not stated) [Fulvestrant],< 0%,< 0%,< 0%,< 0%,< 0%,8.45%,15.1%,< 0%
O=C(O)c1cccnc1Nc1cccc(C(F)(F)F)c1 [Niflumic acid],< 0%,< 0%,< 0%,< 0%,< 0%,< 0%,6.82%,< 0%

SMILES,reduction in cell viability (M229P),reduction in cell viability (M229R),reduction in cell viability (M238P),reduction in cell viability (M238R),reduction in cell viability (M249P),reduction in cell viability (M249R),reduction in cell viability (UACC62P),reduction in cell viability (UACC62R)
NC(=O)c1nnn(Cc2cc(Cl)c(C(=O)c3ccc(Cl)cc3)c(Cl)c2)c1N [Carboxyamidotriazole],< 0%,14.7%,< 0%,< 0%,< 0%,< 0%,< 0%,< 0%
c1cc(N[C@@H]2CCNC2)nc(-c2cnc3ccc(-c4cn[nH]c4)cn23)c1,< 0%,< 0%,2.31%,< 0%,< 0%,< 0%,6.57%,0.55%
FC(F)c1nc2ccccc2n1-c1nc(N2CCOCC2)nc(N2CCOCC2)n1,< 0%,9.77%,10.5%,15.8%,< 0%,6.02%,< 0%,1.89%
COc1ccc(-c2ccc3c(N4CCOC[C@@H]4C)nc(N4CCOC[C@@H]4C)nc3n2)cc1CO,55.9%,43.2%,60.4%,54.1%,65.4%,64.1%,68.8%,66.1%
Cc1ccnc2c1NC(=O)c1cccnc1N2C1CC1 [Nevirapine],< 0%,< 0%,< 0%,< 0%,< 0%,< 0%,< 0%,< 0%
CC1(C)CCC(CN2CCN(c3ccc(C(=O)NS(=O)(=O)c4ccc(NCC5CCOCC5)c([N+](=O)[O-])c4)c(Oc4cnc5[nH]ccc5c4)c3)CC2)=C(c2ccc(Cl)cc2)C1,< 0%,5.43%,< 0%,< 0%,< 0%,< 0%,< 0%,< 0%
O=c1cc(-c2cccc3c2Sc2ccccc2S3)oc(N2CCOCC2)c1,< 0%,< 0%,< 0%,< 0%,< 0%,< 0%,< 0%,< 0%
CCCCCCCCCCCC1=C(O)C(=O)C=C(O)C1=O [Embelin],< 0%,< 0%,< 0%,< 0%,< 0%,< 0%,< 0%,< 0%
NC(CO)C(=O)NNCc1ccc(O)c(O)c1O (configuration not stated) [Benserazide],< 0%,< 0%,< 0%,< 0%,< 0%,< 0%,< 0%,< 0%
CC(C)n1nc(-c2cc3cc(O)ccc3[nH]2)c2c(N)ncnc21,6.07%,< 0%,16.4%,32.1%,12.3%,36.1%,25.8%,18.8%
CC(C)CCN1c2nc(Nc3cc(F)c(O)c(F)c3)ncc2N(C)C(=O)C1C (configuration not stated),< 0%,< 0%,< 0%,< 0%,< 0%,< 0%,< 0%,< 0%
CS(=O)(=O)c1ccc(-c2cnc(N)c(C(=O)Nc3ccccc3)n2)cc1,< 0%,< 0%,< 0%,< 0%,< 0%,< 0%,< 0%,< 0%
CC[C@H](NC(=O)[C@H](C)NC)C(=O)N1C[C@@H](O)C[C@H]1Cc1c(-c2[nH]c3cc(F)ccc3c2C[C@@H]2C[C@H](O)CN2C(=O)[C@H](CC)NC(=O)[C@H](C)NC)[nH]c2cc(F)ccc12 [Birinapant],< 0%,6.87%,< 0%,12.7%,< 0%,< 0%,< 0%,27%
N=C(N)NC(=O)c1nc(Cl)c(N)nc1N [Amiloride],< 0%,< 0%,< 0%,< 0%,< 0%,< 0%,< 0%,< 0%
COC(=O)Nc1nc2cc(C(=O)c3cccs3)ccc2[nH]1 [Nocodazole],38.1%,31.7%,63.1%,60.6%,61%,52.9%,60%,75.6%
CC1(C)CC(=O)c2c(C(F)(F)F)nn(-c3ccc(C(N)=O)c(N[C@H]4CC[C@H](OC(=O)CN)CC4)c3)c2C1,63.8%,62.8%,49.6%,61.7%,36.4%,32.9%,72.4%,70.5%
Cc1c(C(=O)NN2CCCCC2)nn(-c2ccc(Cl)cc2Cl)c1-c1ccc(Cl)cc1 [Rimonabant],< 0%,< 0%,< 0%,< 0%,< 0%,< 0%,< 0%,< 0%
CCOc1cc2c(c(F)c1OCC)C(=N)N(CC(=O)c1cc(N3CCOCC3)c(OC)c(C(C)(C)C)c1)C2,< 0%,< 0%,10.6%,16.4%,11.7%,< 0%,19.2%,11.8%
COc1cc(C(=O)NC2CCN(C)CC2)ccc1Nc1ncc2c(n1)N(C1CCCC1)CCC(=O)N2C(C)C,< 0%,< 0%,< 0%,< 0%,< 0%,< 0%,< 0%,9.56%
C[C@]12CCC3=C4CCC(=O)C=C4CC[C@H]3[C@@H]1CC[C@@]2(O)CC#N [Dienogest],< 0%,< 0%,< 0%,< 0%,< 0%,< 0%,< 0%,< 0%
CN1N=C(N)c2cn([C@@H]3O[C@H](COP(=O)(O)O)[C@@H](O)[C@H]3O)c3ncnc1c23 [Triciribine phosphate],< 0%,14.3%,< 0%,< 0%,< 0%,< 0%,< 0%,< 0%
CCCS(=O)(=O)Nc1ccc(F)c(C(=O)c2c[nH]c3ncc(Cl)cc23)c1F,< 0%,< 0%,24.1%,< 0%,7.58%,< 0%,42.6%,< 0%

# A portion taken from the entries so far:
SMILES,reduction in cell viability (M229P),reduction in cell viability (M229R),reduction in cell viability (M238P),reduction in cell viability (M238R),reduction in cell viability (M249P),reduction in cell viability (M249R),reduction in cell viability (UACC62P),reduction in cell viability (UACC62R)
CC1(C)CCC(CN2CCN(c3ccc(C(=O)NS(=O)(=O)c4ccc(NCC5CCOCC5)c([N+](=O)[O-])c4)c(Oc4cnc5[nH]ccc5c4)c3)CC2)=C(c2ccc(Cl)cc2)C1,< 0%,5.43%,< 0%,< 0%,< 0%,< 0%,< 0%,< 0%
O=c1cc(-c2cccc3c2Sc2ccccc2S3)oc(N2CCOCC2)c1,< 0%,< 0%,< 0%,< 0%,< 0%,< 0%,< 0%,< 0%
CCCCCCCCCCCC1=C(O)C(=O)C=C(O)C1=O [Embelin],< 0%,< 0%,< 0%,< 0%,< 0%,< 0%,< 0%,< 0%
NC(CO)C(=O)NNCc1ccc(O)c(O)c1O (configuration not stated) [Benserazide],< 0%,< 0%,< 0%,< 0%,< 0%,< 0%,< 0%,< 0%
CC(C)n1nc(-c2cc3cc(O)ccc3[nH]2)c2c(N)ncnc21,6.07%,< 0%,16.4%,32.1%,12.3%,36.1%,25.8%,18.8%
CC(C)CCN1c2nc(Nc3cc(F)c(O)c(F)c3)ncc2N(C)C(=O)C1C (configuration not stated),< 0%,< 0%,< 0%,< 0%,< 0%,< 0%,< 0%,< 0%
CS(=O)(=O)c1ccc(-c2cnc(N)c(C(=O)Nc3ccccc3)n2)cc1,< 0%,< 0%,< 0%,< 0%,< 0%,< 0%,< 0%,< 0%
CC[C@H](NC(=O)[C@H](C)NC)C(=O)N1C[C@@H](O)C[C@H]1Cc1c(-c2[nH]c3cc(F)ccc3c2C[C@@H]2C[C@H](O)CN2C(=O)[C@H](CC)NC(=O)[C@H](C)NC)[nH]c2cc(F)ccc12 [Birinapant],< 0%,6.87%,< 0%,12.7%,< 0%,< 0%,< 0%,27%
N=C(N)NC(=O)c1nc(Cl)c(N)nc1N [Amiloride],< 0%,< 0%,< 0%,< 0%,< 0%,< 0%,< 0%,< 0%
COC(=O)Nc1nc2cc(C(=O)c3cccs3)ccc2[nH]1 [Nocodazole],38.1%,31.7%,63.1%,60.6%,61%,52.9%,60%,75.6%
CC1(C)CC(=O)c2c(C(F)(F)F)nn(-c3ccc(C(N)=O)c(N[C@H]4CC[C@H](OC(=O)CN)CC4)c3)c2C1,63.8%,62.8%,49.6%,61.7%,36.4%,32.9%,72.4%,70.5%
Cc1c(C(=O)NN2CCCCC2)nn(-c2ccc(Cl)cc2Cl)c1-c1ccc(Cl)cc1 [Rimonabant],< 0%,< 0%,< 0%,< 0%,< 0%,< 0%,< 0%,< 0%
